{"source": "paper doi:10.64898/2025.12.14.694184", "about": "(bioRxiv, 2025)", "key": {"[1]": {"target": "T1, CLCC1-FL (full-length), AAV-TBG-CLCC1-FL in Huh7 cells (mouse) (UniProt Q99LI2)", "T1 sequence": "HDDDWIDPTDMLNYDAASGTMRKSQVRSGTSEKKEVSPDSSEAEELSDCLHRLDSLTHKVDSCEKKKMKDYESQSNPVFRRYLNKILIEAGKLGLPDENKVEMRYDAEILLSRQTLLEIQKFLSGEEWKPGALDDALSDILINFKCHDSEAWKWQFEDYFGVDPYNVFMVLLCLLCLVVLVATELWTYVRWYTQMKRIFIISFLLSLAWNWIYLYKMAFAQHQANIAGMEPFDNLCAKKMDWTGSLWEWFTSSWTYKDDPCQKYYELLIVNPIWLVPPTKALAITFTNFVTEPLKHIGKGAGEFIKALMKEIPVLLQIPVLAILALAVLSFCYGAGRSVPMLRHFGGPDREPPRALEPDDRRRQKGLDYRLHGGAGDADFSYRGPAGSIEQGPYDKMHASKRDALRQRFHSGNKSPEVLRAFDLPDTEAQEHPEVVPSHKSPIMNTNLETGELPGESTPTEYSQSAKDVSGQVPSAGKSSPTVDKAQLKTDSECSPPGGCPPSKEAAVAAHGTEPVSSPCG", "assay": "co-IP"}, "[2]": {"target": "TorsinA-G251D-StrepTagII-FLAG-StrepTagII (human) (UniProt O14656)", "assay": "native gel or EMSA"}, "[3]": {"target": "T2, endogenous CLCC1 (mouse liver) (mouse (endogenous in liver)) (UniProt Q99LI2)", "T2 sequence": "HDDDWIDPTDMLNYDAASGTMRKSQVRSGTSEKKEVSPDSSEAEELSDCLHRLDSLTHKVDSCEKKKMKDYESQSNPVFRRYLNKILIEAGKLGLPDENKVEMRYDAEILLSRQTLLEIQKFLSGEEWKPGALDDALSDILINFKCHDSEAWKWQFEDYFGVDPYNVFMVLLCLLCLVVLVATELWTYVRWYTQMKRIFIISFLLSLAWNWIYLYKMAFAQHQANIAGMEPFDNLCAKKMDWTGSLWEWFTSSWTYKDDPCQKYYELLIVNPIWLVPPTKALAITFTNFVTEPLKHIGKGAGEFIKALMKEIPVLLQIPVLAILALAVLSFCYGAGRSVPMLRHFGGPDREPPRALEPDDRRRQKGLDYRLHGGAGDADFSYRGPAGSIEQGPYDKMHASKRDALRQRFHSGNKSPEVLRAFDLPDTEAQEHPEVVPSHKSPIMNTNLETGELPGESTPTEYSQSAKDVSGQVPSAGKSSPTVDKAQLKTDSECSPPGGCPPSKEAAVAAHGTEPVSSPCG", "assay": "co-IP"}, "[4]": {"target": "T3, mCLCC1-StrepTagII-FLAG-StrepTagII (mouse) (UniProt Q99LI2)", "T3 sequence": "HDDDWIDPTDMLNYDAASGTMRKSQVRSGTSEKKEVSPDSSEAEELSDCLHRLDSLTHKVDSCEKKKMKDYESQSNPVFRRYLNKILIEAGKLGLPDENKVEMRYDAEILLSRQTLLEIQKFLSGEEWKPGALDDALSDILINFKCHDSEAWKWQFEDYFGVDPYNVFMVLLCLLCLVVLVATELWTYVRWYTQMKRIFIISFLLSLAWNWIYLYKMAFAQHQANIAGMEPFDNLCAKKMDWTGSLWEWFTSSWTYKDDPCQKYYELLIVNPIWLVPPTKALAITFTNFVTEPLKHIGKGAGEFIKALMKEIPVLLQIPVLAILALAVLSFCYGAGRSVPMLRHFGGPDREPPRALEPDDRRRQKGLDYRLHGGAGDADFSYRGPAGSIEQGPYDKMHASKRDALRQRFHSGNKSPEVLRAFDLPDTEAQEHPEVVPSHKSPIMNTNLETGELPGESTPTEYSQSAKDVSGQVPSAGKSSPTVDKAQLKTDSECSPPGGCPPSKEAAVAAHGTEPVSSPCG", "assay": "co-IP"}, "[5]": {"target": "ectopically expressed TorsinA (mouse liver) (UniProt O14656)", "assay": "co-IP"}, "[6]": {"target": "T2, endogenous CLCC1 (mouse liver) (mouse (endogenous in liver))", "assay": "native gel or EMSA"}, "[7]": {"target": "T3, mCLCC1-StrepTagII-FLAG-StrepTagII (mouse)", "assay": "native gel or EMSA"}}, "note": "No constants are given. Whether binding was seen depends on the method and setting. For part of these data: In cells and extracts the contact can be indirect. Some binding calls cover weakened binding; strength is not graded here. For part of these data: Sequences can lack the tags named with a protein."}
{"molecule": "TorsinA (AAV-TBG-TorsinA, in Huh7 cells) (from UniProt O14656 21-332)", "values": [{"measurement": "binding", "setting": "[1]", "value": "binds"}]}
{"molecule": "TorsinA-G251D-StrepTagII-FLAG-StrepTagII (from UniProt O14656 21-332) (enzyme)", "values": [{"measurement": "binding", "setting": "[2]", "value": "no binding"}]}
{"molecule": "TorsinB (endogenous, mouse liver) (protein, UniProt Q9ER41 25-336) FEPVSVGIAIGAVSALTGYLSYTDFYCRFTECCHEERPLNTSALKLDLEEKLFGQHLATEVILKALTGFRNNKNSKKPLTLSLHGWAGTGKNFISQIVAENLYPKGLKSNFVHLFVSTLHFPHEQKIKVYQDQLQKWIRGNVSACGSSVFIFDEMDKLHPGIIDAIKPFLDYYEQVDGISYRRAIFIFLSNAGGDLITKTALDFWRAGRKREEIQLKDLEPVLSVGVFNNKHSGLWHSGLIDKNLIDYFIPFLPLEYKHVKMCVRAEMRARGAAVDEDVVTSVADEMTFFPKDEKIYSDKGCKTVQSRLDFH", "values": [{"measurement": "binding", "setting": "[3]", "value": "binds"}, {"measurement": "binding", "setting": "[4]", "value": "binds"}]}
{"molecule": "endogenous CLCC1 (mouse liver) (protein, UniProt Q99LI2 19-539) HDDDWIDPTDMLNYDAASGTMRKSQVRSGTSEKKEVSPDSSEAEELSDCLHRLDSLTHKVDSCEKKKMKDYESQSNPVFRRYLNKILIEAGKLGLPDENKVEMRYDAEILLSRQTLLEIQKFLSGEEWKPGALDDALSDILINFKCHDSEAWKWQFEDYFGVDPYNVFMVLLCLLCLVVLVATELWTYVRWYTQMKRIFIISFLLSLAWNWIYLYKMAFAQHQANIAGMEPFDNLCAKKMDWTGSLWEWFTSSWTYKDDPCQKYYELLIVNPIWLVPPTKALAITFTNFVTEPLKHIGKGAGEFIKALMKEIPVLLQIPVLAILALAVLSFCYGAGRSVPMLRHFGGPDREPPRALEPDDRRRQKGLDYRLHGGAGDADFSYRGPAGSIEQGPYDKMHASKRDALRQRFHSGNKSPEVLRAFDLPDTEAQEHPEVVPSHKSPIMNTNLETGELPGESTPTEYSQSAKDVSGQVPSAGKSSPTVDKAQLKTDSECSPPGGCPPSKEAAVAAHGTEPVSSPCG", "values": [{"measurement": "binding", "setting": "[5]", "value": "binds"}, {"measurement": "binding", "setting": "[6]", "value": "binds"}]}
{"molecule": "mCLCC1-StrepTagII-FLAG-StrepTagII (protein, UniProt Q99LI2 19-539) HDDDWIDPTDMLNYDAASGTMRKSQVRSGTSEKKEVSPDSSEAEELSDCLHRLDSLTHKVDSCEKKKMKDYESQSNPVFRRYLNKILIEAGKLGLPDENKVEMRYDAEILLSRQTLLEIQKFLSGEEWKPGALDDALSDILINFKCHDSEAWKWQFEDYFGVDPYNVFMVLLCLLCLVVLVATELWTYVRWYTQMKRIFIISFLLSLAWNWIYLYKMAFAQHQANIAGMEPFDNLCAKKMDWTGSLWEWFTSSWTYKDDPCQKYYELLIVNPIWLVPPTKALAITFTNFVTEPLKHIGKGAGEFIKALMKEIPVLLQIPVLAILALAVLSFCYGAGRSVPMLRHFGGPDREPPRALEPDDRRRQKGLDYRLHGGAGDADFSYRGPAGSIEQGPYDKMHASKRDALRQRFHSGNKSPEVLRAFDLPDTEAQEHPEVVPSHKSPIMNTNLETGELPGESTPTEYSQSAKDVSGQVPSAGKSSPTVDKAQLKTDSECSPPGGCPPSKEAAVAAHGTEPVSSPCG", "values": [{"measurement": "binding", "setting": "[7]", "value": "binds"}]}
{"molecule": "TorsinA (endogenous, mouse liver) (protein, UniProt Q9ER39 21-333) VEPISLSLALAGVLTTYISYPRLYCLFAECCGQMRSLSREALQKDLDNKLFGQHLAKKVILNAVSGFLSNPKPKKPLTLSLHGWTGTGKNFASKIIAENIYEGGLNSDYVHLFVATLHFPHASNITQYKDQLQMWIRGNVSACARSIFIFDEMDKMHAGLIDAIKPFLDYYDVVDEVSYQKAIFIFLSNAGAERITDVALDFWKSGKQREEIKLRDMEPALAVSVFNNKNSGFWHSSLIDRNLIDYFVPFLPLEYKHLKMCIRVEMQSRGYEVDEDIISKVAEEMTFFPKEEKVFSDKGCKTVFTKLDYYLDD", "values": [{"measurement": "binding", "setting": "[3]", "value": "binds"}, {"measurement": "binding", "setting": "[4]", "value": "binds"}]}
